Source: ChEMBL document CHEMBL3988442, “University of Dundee, Small-Polar-MMV Screening Library” (2021).

The chains behind the UniProt entries cited, without tags or fusion partners. Residues count along the entry.
UniProt I6X8D2, whole entry: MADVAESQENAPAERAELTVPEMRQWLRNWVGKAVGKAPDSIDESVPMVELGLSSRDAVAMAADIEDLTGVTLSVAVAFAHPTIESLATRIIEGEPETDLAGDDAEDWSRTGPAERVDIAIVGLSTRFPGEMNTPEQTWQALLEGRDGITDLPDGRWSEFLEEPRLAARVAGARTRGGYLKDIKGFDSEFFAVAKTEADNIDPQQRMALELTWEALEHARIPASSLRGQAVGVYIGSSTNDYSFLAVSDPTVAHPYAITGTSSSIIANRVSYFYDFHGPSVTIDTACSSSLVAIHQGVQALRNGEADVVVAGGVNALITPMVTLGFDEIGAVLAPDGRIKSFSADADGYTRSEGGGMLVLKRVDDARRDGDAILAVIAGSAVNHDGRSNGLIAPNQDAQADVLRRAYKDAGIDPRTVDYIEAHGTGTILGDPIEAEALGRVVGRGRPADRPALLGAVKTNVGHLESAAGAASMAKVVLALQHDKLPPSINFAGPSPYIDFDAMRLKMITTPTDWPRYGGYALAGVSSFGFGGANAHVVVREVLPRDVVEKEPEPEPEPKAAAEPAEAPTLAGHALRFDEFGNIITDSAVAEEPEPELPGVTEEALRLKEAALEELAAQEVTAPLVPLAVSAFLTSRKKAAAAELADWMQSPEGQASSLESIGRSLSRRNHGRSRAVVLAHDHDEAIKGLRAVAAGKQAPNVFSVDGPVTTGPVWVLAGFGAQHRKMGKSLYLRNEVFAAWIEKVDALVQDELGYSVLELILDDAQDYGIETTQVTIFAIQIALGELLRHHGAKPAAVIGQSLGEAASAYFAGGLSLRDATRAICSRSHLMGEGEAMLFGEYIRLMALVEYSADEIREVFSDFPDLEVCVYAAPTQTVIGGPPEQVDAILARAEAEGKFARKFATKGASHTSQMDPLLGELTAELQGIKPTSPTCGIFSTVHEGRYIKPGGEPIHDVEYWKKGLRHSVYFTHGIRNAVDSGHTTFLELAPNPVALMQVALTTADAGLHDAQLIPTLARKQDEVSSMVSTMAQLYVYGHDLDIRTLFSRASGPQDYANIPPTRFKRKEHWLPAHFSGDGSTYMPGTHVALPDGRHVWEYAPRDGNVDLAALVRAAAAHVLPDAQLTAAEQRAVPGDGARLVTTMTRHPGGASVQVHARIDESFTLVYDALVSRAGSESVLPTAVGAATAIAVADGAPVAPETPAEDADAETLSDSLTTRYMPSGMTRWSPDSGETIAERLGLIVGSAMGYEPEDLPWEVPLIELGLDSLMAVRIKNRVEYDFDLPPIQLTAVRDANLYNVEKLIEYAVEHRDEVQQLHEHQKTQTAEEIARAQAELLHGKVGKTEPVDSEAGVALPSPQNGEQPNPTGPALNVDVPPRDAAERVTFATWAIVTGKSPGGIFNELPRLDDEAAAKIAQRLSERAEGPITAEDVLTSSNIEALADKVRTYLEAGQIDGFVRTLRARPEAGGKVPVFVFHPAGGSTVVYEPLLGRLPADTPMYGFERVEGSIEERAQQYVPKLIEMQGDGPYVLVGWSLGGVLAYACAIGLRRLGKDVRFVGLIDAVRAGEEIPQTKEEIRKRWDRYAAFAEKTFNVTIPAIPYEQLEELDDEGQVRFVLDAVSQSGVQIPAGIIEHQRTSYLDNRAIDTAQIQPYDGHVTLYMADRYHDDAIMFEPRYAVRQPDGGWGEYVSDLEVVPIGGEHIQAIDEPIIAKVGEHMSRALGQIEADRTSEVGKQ
UniProt P9WFT3, whole entry: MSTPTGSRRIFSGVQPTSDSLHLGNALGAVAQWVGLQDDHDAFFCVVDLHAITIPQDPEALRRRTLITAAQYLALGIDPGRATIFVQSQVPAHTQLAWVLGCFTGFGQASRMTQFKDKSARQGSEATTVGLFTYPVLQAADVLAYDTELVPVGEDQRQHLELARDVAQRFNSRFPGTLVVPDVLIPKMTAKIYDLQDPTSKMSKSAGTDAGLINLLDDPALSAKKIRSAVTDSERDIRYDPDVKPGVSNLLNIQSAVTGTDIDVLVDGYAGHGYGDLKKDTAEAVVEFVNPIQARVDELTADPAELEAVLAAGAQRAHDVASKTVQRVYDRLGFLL
UniProt P9WNZ1, whole entry: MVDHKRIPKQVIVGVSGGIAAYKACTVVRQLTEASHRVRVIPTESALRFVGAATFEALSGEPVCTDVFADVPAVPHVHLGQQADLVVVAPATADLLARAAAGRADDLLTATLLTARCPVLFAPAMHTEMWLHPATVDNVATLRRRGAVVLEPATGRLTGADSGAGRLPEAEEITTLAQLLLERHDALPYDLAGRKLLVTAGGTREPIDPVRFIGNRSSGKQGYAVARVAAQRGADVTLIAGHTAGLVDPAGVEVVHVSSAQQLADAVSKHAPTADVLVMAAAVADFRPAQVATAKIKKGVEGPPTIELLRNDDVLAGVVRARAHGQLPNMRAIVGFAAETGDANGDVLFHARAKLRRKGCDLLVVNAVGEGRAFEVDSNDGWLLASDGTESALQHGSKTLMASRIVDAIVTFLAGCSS
UniProt Q8IDJ8, 1-583: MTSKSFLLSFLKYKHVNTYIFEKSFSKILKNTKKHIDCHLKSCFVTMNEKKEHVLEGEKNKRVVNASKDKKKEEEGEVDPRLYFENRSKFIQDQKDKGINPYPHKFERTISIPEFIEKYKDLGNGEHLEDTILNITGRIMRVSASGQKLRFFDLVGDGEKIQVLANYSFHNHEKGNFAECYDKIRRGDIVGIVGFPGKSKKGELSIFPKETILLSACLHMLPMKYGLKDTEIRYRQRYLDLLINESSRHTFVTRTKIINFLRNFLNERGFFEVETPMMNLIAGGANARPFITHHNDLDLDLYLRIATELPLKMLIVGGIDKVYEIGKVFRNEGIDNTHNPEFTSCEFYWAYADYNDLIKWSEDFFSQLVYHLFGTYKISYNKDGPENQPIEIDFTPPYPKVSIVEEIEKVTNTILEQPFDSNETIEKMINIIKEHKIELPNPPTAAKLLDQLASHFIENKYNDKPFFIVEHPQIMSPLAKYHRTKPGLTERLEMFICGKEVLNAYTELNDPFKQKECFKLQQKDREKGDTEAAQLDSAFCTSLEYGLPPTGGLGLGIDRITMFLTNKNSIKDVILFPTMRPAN

Results are given as percent effect. The controls that fix the scale are not given in the record; negative values are as filed. This is an unselected part of the compounds tested.

Pks13 thioesterase: 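Polyketide synthase Pks13, Mycobacterium tuberculosis (UniProt I6X8D2). Enzyme assay of the thioesterase domain of polyketide synthase 13; the read-out is not stated. Compounds at 30 µM. Higher reads as stronger inhibition (inferred from which compounds were picked for retests). About 67,000 compounds were tested under these conditions; 0.46% (about 300) showed 50% or more at least once.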
MtTrpRS: 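Tryptophan-tRNA ligase, Mycobacterium tuberculosis (UniProt P9WFT3). Enzyme assay of tryptophanyl-tRNA synthetase; the read-out is not stated. Compounds at 10 µM. Higher most likely means stronger inhibition; the record gives no direction and few retests gave an IC50. Size under these conditions: about 65,000 compounds, about 64 of them at 50% or above in at least one test.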
CoaBC: 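Coenzyme A biosynthesis protein CoaBC, Mycobacterium tuberculosis (UniProt P9WNZ1). Enzyme assay of CoaBC with a phosphate dye (Biomol Green) read at 650 nm. Tested at 30 µM. Direction is inferred from only a few compounds that gave an IC50; most scored high, so higher reads as stronger inhibition. Most strong results did not repeat in a second test. About 67,000 compounds were tested under these conditions; 0.06% (about 40) showed 50% or more at least once.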
PfKRS1: 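Enzyme assay of the cytosolic lysyl-tRNA synthetase in 384-well plates, read by luminescence. Target: Lysine-tRNA ligase, Plasmodium falciparum 3D7 (UniProt Q8IDJ8). Tested at 30 µM. Higher reads as stronger inhibition, judged from the few compounds that gave an IC50. Of about 69,000 compounds tested this way, about 49 (0.071%) reached 50% or more in at least one test.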

{"compound": "CCN1CCN(c2ccccc2NC(=O)NCc2ccon2)CC1", "Pks13 thioesterase": -15.8, "MtTrpRS": -3.537, "CoaBC": 1.887, "PfKRS1": 10.63}
{"compound": "O=C(C1CCOCC1)N1C[C@H]2CCC[C@@]2(COc2ccccn2)C1", "Pks13 thioesterase": -14.27, "MtTrpRS": -2.092, "CoaBC": -10.5, "PfKRS1": 2.507}
{"compound": "Cc1nc2ccccc2c(=O)n1CCCC(=O)N1CCNC(=O)CC1", "Pks13 thioesterase": -13.34, "MtTrpRS": -3.076, "CoaBC": 5.45, "PfKRS1": 1.299}
{"compound": "COCCc1ncc(CN2CCC(Oc3ccccc3C)CC2)cn1", "Pks13 thioesterase": 3.076, "MtTrpRS": -0.25, "CoaBC": -1.178, "PfKRS1": 4.092}
{"compound": "COCCN1CCC2(CCC1=O)CN(C1CCOCC1)CCN2C", "stereo": "stereo not shown", "Pks13 thioesterase": -8.226, "MtTrpRS": -0.8051, "CoaBC": 2.381, "PfKRS1": -1.984}
{"compound": "O=C(O)c1cc(S(=O)(=O)Nc2ccc(F)cc2Cl)cc2c1OCCO2", "Pks13 thioesterase": -23.22, "MtTrpRS": -1.278, "CoaBC": 1.908, "PfKRS1": -0.3431}
{"compound": "COc1ccc(CC2CCCN2CCCC#N)cc1", "stereo": "stereo not shown", "Pks13 thioesterase": -22.87, "MtTrpRS": -5.277, "CoaBC": -6.4, "PfKRS1": -1.212}
{"compound": "CC(C)OCCC1CCCCN1S(N)(=O)=O", "stereo": "stereo not shown", "Pks13 thioesterase": 16.49, "MtTrpRS": -2.816, "CoaBC": -4.147, "PfKRS1": -5.042}
{"compound": "CCc1nc(CN(C)C2CCN(CCn3cc(C#N)cn3)C2)no1", "stereo": "stereo not shown", "Pks13 thioesterase": -4.136, "MtTrpRS": -2.739, "CoaBC": 0.1186, "PfKRS1": 0.289}
{"compound": "Cc1ncc(CN(C)C(=O)Nc2ccc(CN3CCOC3=O)cc2)s1", "Pks13 thioesterase": -33.62, "MtTrpRS": -2.786, "PfKRS1": 1.627}
{"compound": "CN1C(=O)C2(CCCN(C(=O)c3cccnc3O)C2)c2ccccc21", "stereo": "stereo not shown", "Pks13 thioesterase": -14.26, "MtTrpRS": -2.333, "CoaBC": 0.6053, "PfKRS1": 2.528}
{"compound": "Cc1noc(CNC(=O)N2CCN(c3nc(C)c(C)s3)CC2)n1", "Pks13 thioesterase": -0.09604, "MtTrpRS": 1.743, "CoaBC": 1.269, "PfKRS1": 10.53}
{"compound": "CC(C)N(C)S(=O)(=O)N(C)Cc1ccc2c(c1)OCO2", "Pks13 thioesterase": -5.022, "MtTrpRS": 1.998, "CoaBC": 0.7229, "PfKRS1": -2.377}
{"compound": "N#Cc1ccc(OCCN2CCc3c(ncn3C3CC3)C2)cc1", "Pks13 thioesterase": -3.072, "MtTrpRS": -0.3997, "CoaBC": 2.892, "PfKRS1": 0.2898}
{"compound": "Cc1cccc(OC2CN(C(=O)C3CC(=O)N(C4CC4)C3)C2)c1", "stereo": "stereo not shown", "Pks13 thioesterase": 9.283, "MtTrpRS": -2.764, "CoaBC": -4.459, "PfKRS1": 3.615}
{"compound": "CC(C)CCC(=O)N1CCCC2(CCN(Cc3ccccc3C#N)C2)C1", "stereo": "stereo not shown", "Pks13 thioesterase": -10.52, "MtTrpRS": 2.685, "CoaBC": -2.512, "PfKRS1": 4.499}
{"compound": "Cc1cc(C(=O)N2C[C@@H](C(=O)O)[C@H](c3ccccc3C)C2)c(C)o1", "Pks13 thioesterase": -25.66, "MtTrpRS": -5.532, "CoaBC": -2.643, "PfKRS1": -2.323}
{"compound": "O=C(c1ccccc1O)N1CCn2c(nnc2C(F)(F)F)C1", "Pks13 thioesterase": -0.7254, "MtTrpRS": 2.57, "CoaBC": 6.962, "PfKRS1": 6.562}
{"compound": "CCOc1ccc(OCC)c(NCc2cc(C)on2)c1", "Pks13 thioesterase": -3.202, "MtTrpRS": -0.06345, "CoaBC": -0.7444, "PfKRS1": 3.523}
{"compound": "CC[C@H]1CN(C(=O)c2cnc(N3CCN(C)CC3)nc2C)CC[C@@]1(C)O", "Pks13 thioesterase": -18.47, "MtTrpRS": -7.327, "CoaBC": -2.232, "PfKRS1": 4.017}
{"compound": "CCn1cnnc1C1CCN(C(=O)c2cnc(C)s2)CC1", "Pks13 thioesterase": -8.99, "MtTrpRS": -0.7674, "CoaBC": 9.694, "PfKRS1": -1.028}
{"compound": "O=C1CCCC2(CCN(C(=O)c3cnccn3)CC2)N1", "Pks13 thioesterase": -14.73, "MtTrpRS": 2.344, "CoaBC": 0, "PfKRS1": 6.057}
{"compound": "NS(=O)(=O)c1ccc(NCc2ccccc2F)cc1C(F)(F)F", "Pks13 thioesterase": -3.559, "MtTrpRS": -1.975, "CoaBC": 8.065, "PfKRS1": 4.554}
{"compound": "CCOC(C)C(=O)NCCNS(C)(=O)=O", "stereo": "stereo not shown", "Pks13 thioesterase": -12.69, "MtTrpRS": 0.712, "CoaBC": -0.7229, "PfKRS1": 0.389}
{"compound": "CCOc1ccccc1-c1noc(CN2CCCC(O)C2)n1", "stereo": "stereo not shown", "Pks13 thioesterase": -25.56, "MtTrpRS": 4.769, "CoaBC": 6.154, "PfKRS1": 2.128}

The last 2 entries again:

| compound | Pks13 thioesterase | MtTrpRS | CoaBC | PfKRS1 |
|---|---|---|---|---|
| `CCOC(C)C(=O)NCCNS(C)(=O)=O` (stereo not shown) | -12.69 | 0.712 | -0.7229 | 0.389 |
| `CCOc1ccccc1-c1noc(CN2CCCC(O)C2)n1` (stereo not shown) | -25.56 | 4.769 | 6.154 | 2.128 |